Data taken from publication doi:10.1101/634733.
Results are given in words; binding and its absence hold for the method and conditions named. In cells and extracts the contact can be indirect. Some binding calls cover weakened binding; strength is not graded here. Sequences can lack the tags named with a protein.

Amino acid sequences for entries named in this document (tags omitted).
UniProt Q8TDY2: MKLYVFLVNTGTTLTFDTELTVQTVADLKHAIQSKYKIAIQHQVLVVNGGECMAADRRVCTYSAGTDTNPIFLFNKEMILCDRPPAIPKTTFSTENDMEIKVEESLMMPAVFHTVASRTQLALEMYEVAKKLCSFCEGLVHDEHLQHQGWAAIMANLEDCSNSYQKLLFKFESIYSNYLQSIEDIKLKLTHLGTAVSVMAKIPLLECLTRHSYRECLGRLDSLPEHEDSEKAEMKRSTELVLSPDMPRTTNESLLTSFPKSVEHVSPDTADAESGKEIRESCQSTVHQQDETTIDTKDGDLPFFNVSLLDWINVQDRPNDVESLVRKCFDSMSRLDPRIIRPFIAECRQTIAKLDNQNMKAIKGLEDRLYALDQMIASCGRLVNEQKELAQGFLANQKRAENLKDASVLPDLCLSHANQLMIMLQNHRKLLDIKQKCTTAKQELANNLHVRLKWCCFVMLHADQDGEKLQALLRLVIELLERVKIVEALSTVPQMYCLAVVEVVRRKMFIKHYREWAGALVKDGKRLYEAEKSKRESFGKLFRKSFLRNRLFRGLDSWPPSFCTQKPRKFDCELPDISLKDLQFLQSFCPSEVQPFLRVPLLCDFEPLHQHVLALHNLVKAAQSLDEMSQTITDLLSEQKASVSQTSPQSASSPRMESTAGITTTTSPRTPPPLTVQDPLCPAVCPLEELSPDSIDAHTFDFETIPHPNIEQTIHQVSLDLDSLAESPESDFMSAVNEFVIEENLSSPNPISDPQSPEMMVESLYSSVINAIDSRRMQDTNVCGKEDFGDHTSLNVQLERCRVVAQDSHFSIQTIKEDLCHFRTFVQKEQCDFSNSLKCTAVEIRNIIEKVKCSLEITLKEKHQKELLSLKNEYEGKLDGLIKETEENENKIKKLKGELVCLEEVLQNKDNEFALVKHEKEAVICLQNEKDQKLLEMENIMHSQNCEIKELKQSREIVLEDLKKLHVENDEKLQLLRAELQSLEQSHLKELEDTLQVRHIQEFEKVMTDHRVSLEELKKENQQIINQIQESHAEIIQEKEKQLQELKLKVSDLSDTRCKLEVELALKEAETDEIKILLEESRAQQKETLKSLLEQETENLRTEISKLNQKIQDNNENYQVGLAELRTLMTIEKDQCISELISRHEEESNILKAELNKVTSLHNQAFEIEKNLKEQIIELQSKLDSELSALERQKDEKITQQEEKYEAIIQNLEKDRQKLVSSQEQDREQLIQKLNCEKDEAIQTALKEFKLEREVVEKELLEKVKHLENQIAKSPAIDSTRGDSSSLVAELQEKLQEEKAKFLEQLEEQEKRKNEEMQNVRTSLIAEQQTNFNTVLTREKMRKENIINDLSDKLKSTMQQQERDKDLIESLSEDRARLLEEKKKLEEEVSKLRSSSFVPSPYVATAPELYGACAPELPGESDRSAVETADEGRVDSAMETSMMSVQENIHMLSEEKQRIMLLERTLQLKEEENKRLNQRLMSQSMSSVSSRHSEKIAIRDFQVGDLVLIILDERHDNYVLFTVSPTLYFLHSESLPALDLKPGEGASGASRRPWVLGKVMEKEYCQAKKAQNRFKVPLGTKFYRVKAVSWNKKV
UniProt P28482: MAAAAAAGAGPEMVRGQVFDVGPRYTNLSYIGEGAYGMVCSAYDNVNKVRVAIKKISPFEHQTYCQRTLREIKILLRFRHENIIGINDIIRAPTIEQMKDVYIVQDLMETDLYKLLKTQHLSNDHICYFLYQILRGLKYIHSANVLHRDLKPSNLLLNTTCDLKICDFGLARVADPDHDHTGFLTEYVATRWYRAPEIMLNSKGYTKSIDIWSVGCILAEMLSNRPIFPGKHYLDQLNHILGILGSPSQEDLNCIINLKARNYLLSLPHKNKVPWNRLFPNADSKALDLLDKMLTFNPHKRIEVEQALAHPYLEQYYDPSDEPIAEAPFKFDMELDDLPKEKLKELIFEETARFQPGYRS
UniProt P27361: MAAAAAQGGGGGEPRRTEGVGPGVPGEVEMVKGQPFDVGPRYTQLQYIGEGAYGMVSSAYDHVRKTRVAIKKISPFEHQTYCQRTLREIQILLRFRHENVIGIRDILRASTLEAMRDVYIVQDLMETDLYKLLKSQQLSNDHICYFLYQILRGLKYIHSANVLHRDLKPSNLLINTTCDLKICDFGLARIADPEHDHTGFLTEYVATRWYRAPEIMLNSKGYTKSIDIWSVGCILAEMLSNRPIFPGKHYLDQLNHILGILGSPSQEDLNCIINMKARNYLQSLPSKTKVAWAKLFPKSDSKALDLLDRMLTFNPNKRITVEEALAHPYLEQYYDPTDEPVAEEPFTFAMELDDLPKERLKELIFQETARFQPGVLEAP
UniProt P14635: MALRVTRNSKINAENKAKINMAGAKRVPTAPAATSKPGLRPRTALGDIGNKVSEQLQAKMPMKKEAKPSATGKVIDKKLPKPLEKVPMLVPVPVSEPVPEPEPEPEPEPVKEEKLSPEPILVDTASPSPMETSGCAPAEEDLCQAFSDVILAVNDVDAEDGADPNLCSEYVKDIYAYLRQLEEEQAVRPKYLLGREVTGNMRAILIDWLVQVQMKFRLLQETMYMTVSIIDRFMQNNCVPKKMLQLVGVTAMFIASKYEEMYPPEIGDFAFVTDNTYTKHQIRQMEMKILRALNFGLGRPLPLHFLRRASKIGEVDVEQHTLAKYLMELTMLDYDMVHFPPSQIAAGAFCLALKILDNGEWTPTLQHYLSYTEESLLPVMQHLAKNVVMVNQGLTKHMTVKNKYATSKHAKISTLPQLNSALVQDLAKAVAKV

T1: FLAG-tagged mULK1 (mULK1-3×FLAG) (mouse) (UniProt O70405)
T1 sequence: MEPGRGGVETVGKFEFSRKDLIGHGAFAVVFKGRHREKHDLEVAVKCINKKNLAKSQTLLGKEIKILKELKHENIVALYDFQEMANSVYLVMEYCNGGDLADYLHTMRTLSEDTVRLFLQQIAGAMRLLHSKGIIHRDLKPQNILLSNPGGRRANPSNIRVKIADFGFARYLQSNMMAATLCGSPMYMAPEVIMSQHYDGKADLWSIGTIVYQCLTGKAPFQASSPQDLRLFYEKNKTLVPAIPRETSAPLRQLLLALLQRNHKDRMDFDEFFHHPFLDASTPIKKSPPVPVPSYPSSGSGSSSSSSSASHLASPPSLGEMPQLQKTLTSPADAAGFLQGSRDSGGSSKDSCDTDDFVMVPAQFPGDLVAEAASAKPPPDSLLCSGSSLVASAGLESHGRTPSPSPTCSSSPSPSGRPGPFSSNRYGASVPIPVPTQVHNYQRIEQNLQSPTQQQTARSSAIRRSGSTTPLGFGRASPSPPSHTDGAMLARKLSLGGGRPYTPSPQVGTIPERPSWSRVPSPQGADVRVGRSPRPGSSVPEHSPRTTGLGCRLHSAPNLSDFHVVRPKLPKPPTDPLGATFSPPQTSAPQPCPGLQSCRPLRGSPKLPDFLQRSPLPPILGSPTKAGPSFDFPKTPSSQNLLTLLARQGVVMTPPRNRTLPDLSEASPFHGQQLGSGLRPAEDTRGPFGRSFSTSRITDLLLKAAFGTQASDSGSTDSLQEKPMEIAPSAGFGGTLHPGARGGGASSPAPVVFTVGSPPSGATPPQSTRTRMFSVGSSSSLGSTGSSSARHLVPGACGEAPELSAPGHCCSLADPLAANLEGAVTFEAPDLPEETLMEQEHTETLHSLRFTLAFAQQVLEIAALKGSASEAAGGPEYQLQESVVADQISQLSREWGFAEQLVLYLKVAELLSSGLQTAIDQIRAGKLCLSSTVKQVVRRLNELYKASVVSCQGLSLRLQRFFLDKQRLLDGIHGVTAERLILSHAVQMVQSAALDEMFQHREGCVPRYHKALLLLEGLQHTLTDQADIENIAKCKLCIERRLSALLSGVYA

T2: FLAG-tagged ATG13 (human) (UniProt O75143)
T2 sequence: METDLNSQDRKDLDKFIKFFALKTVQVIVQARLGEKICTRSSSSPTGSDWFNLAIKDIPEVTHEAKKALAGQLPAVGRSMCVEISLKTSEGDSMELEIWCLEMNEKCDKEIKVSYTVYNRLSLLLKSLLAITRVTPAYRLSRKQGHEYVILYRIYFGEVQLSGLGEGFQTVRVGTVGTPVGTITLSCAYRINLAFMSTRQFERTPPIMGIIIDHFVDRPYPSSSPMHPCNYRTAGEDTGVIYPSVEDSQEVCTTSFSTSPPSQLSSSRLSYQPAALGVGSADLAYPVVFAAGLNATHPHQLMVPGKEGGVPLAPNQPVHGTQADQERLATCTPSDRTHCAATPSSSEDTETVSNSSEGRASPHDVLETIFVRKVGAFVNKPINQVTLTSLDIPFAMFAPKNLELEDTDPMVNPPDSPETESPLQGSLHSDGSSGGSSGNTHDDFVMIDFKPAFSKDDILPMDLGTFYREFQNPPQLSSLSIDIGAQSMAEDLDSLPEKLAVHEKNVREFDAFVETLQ


What was measured:
[1] = target: T1, FLAG-tagged mULK1 (mULK1-3×FLAG) (mouse); assay: co-IP
[2] = target: T2, FLAG-tagged ATG13 (human); assay: co-IP

| binding [1] | binding [2] | Molecule |
| --- | --- | --- |
| binds | – | FIP200 (from UniProt Q8TDY2 1-1594) |
| no binding | – | MAPK1 (from UniProt P28482 1-360) (enzyme) |
| no binding | – | MAPK3 (from UniProt P27361 1-379) (enzyme) |
| binds | binds | cyclin B1 (from UniProt P14635 1-433) |
| no binding | – | Aurora A (enzyme, UniProt O14965 1-403) MDRSKENCISGPVKATAPVGGPKRVLVTQQFPCQNPLPVNSGQAQRVLCPSNSSQRIPLQAQKLVSSHKPVQNQKQKQLQATSVPHPVSRPLNNTQKSKQPLPSAPENNPEEELASKQKNEESKKRQWALEDFEIGRPLGKGKFGNVYLAREKQSKFILALKVLFKAQLEKAGVEHQLRREVEIQSHLRHPNILRLYGYFHDATRVYLILEYAPLGTVYRELQKLSKFDEQRTATYITELANALSYCHSKRVIHRDIKPENLLLGSAGELKIADFGWSVHAPSSRRTTLCGTLDYLPPEMIEGRMHDEKVDLWSLGVLCYEFLVGKPPFEANTYQETYKRISRVEFTFPDFVTEGARDLISRLLKHNPSQRPMLREVLEHPWITANSSKPSNCQNKESASKQS |
